PubChem BioAssay AID1259308 | NCATS – 2017
Purpose: 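Candidate targets for better recombinant protein yield in mammalian cells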 (primary screen). Cell system: human HEK293 embryonic kidney cells stably expressing firefly luciferase (HEK-CMV-Luc2-Hygro). Reagents: single siRNA against human genes, 0.8 pmol siRNA per well. Time to read-out: 72 h. Read-out: 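Luciferase light (ONE-Glo) measured on one replicate plate set and viability (CellTiter-Glo) on the other, scaled to a negative control siRNA, with robust z-scores and luciferase per cell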. Reading the numbers: total luciferase, z-score and total luciferase, % of control: higher = more reporter protein produced. Rule for the call: 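Active when the median/MAD z-score for overall luciferase is greater than 3; a gene was taken forward for validation with new siRNAs if at least two of its three siRNAs passed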. Meaning of the calls: active = raised luciferase; inactive = no rise.
Shown is an unselected part of about 59,000 deposited reagents. About 1,510 of all reagents (2.6%) were called active. 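Calls use total luciferase alone and ignore viability, so some active siRNAs may act by altering cell number.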 The numbers tell different reagents against one gene apart. Further read-outs or replicates are left out here.

gene knocked down | reagent no. | total luciferase, z-score | total luciferase, % of control | Call
H2AC20 (H2A clustered histone 20) | 1 | 0.708 | 96 | inactive
H2AC20 (H2A clustered histone 20) | 2 | -1.14 | 59.3 | inactive
H2AC20 (H2A clustered histone 20) | 3 | 1.49 | 111 | inactive
RHCE (Rh blood group CcEe antigens) | 1 | 3.09 | 143 | active
RHCE (Rh blood group CcEe antigens) | 2 | -0.604 | 69.9 | inactive
RHCE (Rh blood group CcEe antigens) | 3 | -0.704 | 67.9 | inactive
MOCS3 (molybdenum cofactor synthesis 3) | 1 | -1.44 | 53.2 | inactive
MOCS3 (molybdenum cofactor synthesis 3) | 2 | 3.15 | 145 | active
MOCS3 (molybdenum cofactor synthesis 3) | 3 | -0.93 | 63.4 | inactive
GPAT4 (glycerol-3-phosphate acyltransferase 4) | 1 | 0.531 | 92.5 | inactive
GPAT4 (glycerol-3-phosphate acyltransferase 4) | 2 | -0.449 | 73 | inactive
GPAT4 (glycerol-3-phosphate acyltransferase 4) | 3 | -0.373 | 74.5 | inactive
RBM4B (RNA binding motif protein 4B) | 1 | 0.0375 | 82.6 | inactive
RBM4B (RNA binding motif protein 4B) | 2 | -0.271 | 76.5 | inactive
RBM4B (RNA binding motif protein 4B) | 3 | -0.684 | 68.3 | inactive
EPS8L2 (EPS8 signaling adaptor L2) | 1 | -0.597 | 70 | inactive
EPS8L2 (EPS8 signaling adaptor L2) | 2 | 1.25 | 107 | inactive
EPS8L2 (EPS8 signaling adaptor L2) | 3 | -1.71 | 47.9 | inactive
GALNT13 (polypeptide N-acetylgalactosaminyltransferase 13) | 1 | -0.254 | 76.8 | inactive
GALNT13 (polypeptide N-acetylgalactosaminyltransferase 13) | 2 | 1 | 102 | inactive
GALNT13 (polypeptide N-acetylgalactosaminyltransferase 13) | 3 | -0.0263 | 81.4 | inactive

Quoted from the entries so far (4 entries):
gene knocked down | reagent no. | total luciferase, z-score | total luciferase, % of control | Call
GPAT4 (glycerol-3-phosphate acyltransferase 4) | 1 | 0.531 | 92.5 | inactive
GPAT4 (glycerol-3-phosphate acyltransferase 4) | 2 | -0.449 | 73 | inactive
GPAT4 (glycerol-3-phosphate acyltransferase 4) | 3 | -0.373 | 74.5 | inactive
RBM4B (RNA binding motif protein 4B) | 1 | 0.0375 | 82.6 | inactive

Additional results follow:
gene knocked down | reagent no. | total luciferase, z-score | total luciferase, % of control | Call
KRTAP9-9 (keratin associated protein 9-9) | 1 | 0.394 | 89.7 | inactive
KRTAP9-9 (keratin associated protein 9-9) | 2 | -0.286 | 76.2 | inactive
KRTAP9-9 (keratin associated protein 9-9) | 3 | 0.856 | 98.9 | inactive
EWSR1 (EWS RNA binding protein 1) | 1 | -0.0524 | 80.8 | inactive
EWSR1 (EWS RNA binding protein 1) | 2 | 0.418 | 90.2 | inactive
EWSR1 (EWS RNA binding protein 1) | 3 | -1.87 | 44.6 | inactive
NODAL (nodal growth differentiation factor) | 1 | -0.04 | 81.1 | inactive
NODAL (nodal growth differentiation factor) | 2 | -0.0562 | 80.8 | inactive
NODAL (nodal growth differentiation factor) | 3 | -1.57 | 50.7 | inactive
NTF4 (neurotrophin 4) | 1 | 0.806 | 97.9 | inactive
NTF4 (neurotrophin 4) | 2 | -0.179 | 78.3 | inactive
NTF4 (neurotrophin 4) | 3 | -2.02 | 41.7 | inactive
KIT (KIT proto-oncogene, receptor tyrosine kinase) | 1 | 0.294 | 87.7 | inactive
KIT (KIT proto-oncogene, receptor tyrosine kinase) | 2 | -1.32 | 55.7 | inactive
KIT (KIT proto-oncogene, receptor tyrosine kinase) | 3 | -1.08 | 60.4 | inactive
PYDC1 (pyrin domain containing 1) | 1 | -1.45 | 53 | inactive
PYDC1 (pyrin domain containing 1) | 2 | 0.48 | 91.4 | inactive
PYDC1 (pyrin domain containing 1) | 3 | 0.703 | 95.9 | inactive
